Literature values, collected in US20150182479A1, “Method of delivering agmatine for medical treatment” (TOPAZ VENTURES, INC., priority 2013, published 2015).

Test system: mouse
Details: for effect on the SSRI-induced rise of brain agmatine levels: mice exposed to FST

Compound | effect on the SSRI-induced rise of brain agmatine levels | concentration of agmatine in brain compared to saline control (mice pretreated and exposed to FST)
c1ccc2c(c1)OCC(C1=NCCN1)O2 (stereo not shown) [idazoxan] | but not | –
N=C(N)NCCC[C@@H](N)C(=O)O [D-arginine] | completely blocked | –
CCC1(C2=NCCN2)Cc2ccccc2O1 (stereo not shown) [efaroxan] | but not | –
CN(C)CCCN1c2ccccc2CCc2ccccc21 [imipramine] | – | but not
